Data: article doi:10.1101/2023.07.26.550624
The exact form of at least one protein or probe is not confirmed.

Tested on: His6-MrpC + FruA-DBD-His8
Test: EMSA
Settings: appeared cooperative; probe letters rebuilt from the primers and the genome

CCAAGCTTGCTCACGTTGCAGACGGGGTGAGCCTTTGGGGCAATACAGGGTTCAAAGTGAGACGATTGCATGCATCAGCGAACGTTGACGAGCGCTGGTCCTCG (double strand) [dev promoter fragment]
binding result: binds
